The record followed here is paper PMC9604255, “Discovery of Simple Diacylhydrazine-Functionalized Cinnamic Acid Derivatives as Potential Microtubule Stabilizers” (International Journal of Molecular Sciences, 2022).

The experiment deals with PC-3 cancer cells. Briefly: MTT antiproliferative assay, PC-3. Format: cell-based. Conditions: Homo sapiens, 48 h, read-out: IC50 PC-3. The source says: An A549 (human non-small cell lung cancer cell line) cell line was purchased from the Shanghai Cell Bank of the Chinese Academy of Sciences; PC-3 (human prostate cancer cell line) cell line was donated by the Key Laboratory of Natural Product Chemistry of the Chinese Academy of Sciences of Guizhou Province; HepG2 (human liver cancer cell line) and NRK 52E (normal rat kidney cell line) cell line was donated by Guizhou Medical University; all cell lines were kept by the laboratory.
The antiproliferative activity of target compounds against A549, PC-3, HepG2, and NRK-52E were determined by MTT assay, as described in previous articles. The assay was recorded at 490 nm by an Infinite® M200 PRO multimode microplate (Tecan, Männedorf, Switzerland).
For orientation: Tetrazolium assays rely on reduction of a dye to a coloured formazan, in cell work by metabolically active cells.

Structures are written as SMILES.

As for `COc1cc2c(c(OC)c1OC)-c1ccc(OC)c(=O)cc1[C@@H](NC(C)=O)CC2` [Colchicine, reference compound], the IC50 stood at 2120 ± 290 nM.

What is called IC50 is the concentration that inhibits the measured activity by half.
